For the test, the target named is wild-type recombinant mouse MASP-3 fused with PA-tag (WT rmMASP-3-PA) (mouse) (UniProt P98064). Briefly: co-IP; 100 ug rmMASP-3-PA given intravenously to MASP-3-deficient C57BL/6J mice, serum taken after 3 h; immunoprecipitation with anti-PA tag antibody beads in TBS with 7 mM MgCl2 and 5 mM CaCl2, 4°C overnight, four washes; reducing SDS-PAGE and Western blot for each LP-PRM, band intensity normalised to rmMASP-3-PA; WT serum also precipitated in TBS with 7 mM MgCl2 and 10 mM EGTA as negative control (levels significantly reduced); only the target purified. (In general: In western blotting, separated proteins are transferred to a membrane and probed.)

Chains of the proteins cited; added tags and fusions are not shown. Lines headed by an entry give the natural chain unless they say otherwise; changes in a name come on top. A line that says so, or that is headed by a name, gives the form on record, which may keep a tag or linker.
wild-type recombinant mouse MASP-3 fused with PA-tag (WT rmMASP-3-PA) (P98064, form named): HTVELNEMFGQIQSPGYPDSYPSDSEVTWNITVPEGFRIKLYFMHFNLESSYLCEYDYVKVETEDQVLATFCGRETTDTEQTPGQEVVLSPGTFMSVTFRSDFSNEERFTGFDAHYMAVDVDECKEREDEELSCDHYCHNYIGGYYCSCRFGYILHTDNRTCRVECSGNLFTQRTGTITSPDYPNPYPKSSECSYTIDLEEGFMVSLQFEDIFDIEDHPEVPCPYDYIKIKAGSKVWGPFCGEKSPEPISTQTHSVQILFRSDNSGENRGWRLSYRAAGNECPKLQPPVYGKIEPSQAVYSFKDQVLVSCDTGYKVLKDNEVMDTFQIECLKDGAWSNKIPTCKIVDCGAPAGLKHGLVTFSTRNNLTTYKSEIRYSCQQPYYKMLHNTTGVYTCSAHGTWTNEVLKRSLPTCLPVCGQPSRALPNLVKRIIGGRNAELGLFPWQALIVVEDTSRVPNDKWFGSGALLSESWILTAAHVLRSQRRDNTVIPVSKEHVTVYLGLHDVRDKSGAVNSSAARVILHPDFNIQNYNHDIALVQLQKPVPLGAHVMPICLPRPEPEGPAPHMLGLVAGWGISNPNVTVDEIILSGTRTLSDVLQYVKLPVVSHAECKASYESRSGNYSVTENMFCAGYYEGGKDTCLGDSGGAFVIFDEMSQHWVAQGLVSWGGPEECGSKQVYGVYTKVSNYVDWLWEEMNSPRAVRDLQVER

The values that follow come from PMC9425028.

Results are given in words; binding and its absence hold for the method and conditions named. In cells and extracts the contact can be indirect. Some results given as binding are weak or reduced against the parent protein; the word gives no strength.

B1: mouse ficolin-A (protein, UniProt O70165 18-334)
chain: SQALGQERGACPDVKVVGLGAQDKVVVIQSCPGFPGPPGPKGEPGSPAGRGERGFQGSPGKMGPAGSKGEPGTMGPPGVKGEKGDTGAAPSLGEKELGDTLCQRGPRSCKDLLTRGIFLTGWYTIHLPDCRPLTVLCDMDVDGGGWTVFQRRVDGSIDFFRDWDSYKRGFGNLGTEFWLGNDYLHLLTANGNQELRVDLQDFQGKGSYAKYSSFQVSEEQEKYKLTLGQFLEGTAGDSLTKHNNMSFTTHDQDNDANSMNCAALFHGAWWYHNCHQSNLNGRYLSGSHESYADGINWGTGQGHHYSYKVAEMKIRAS
On to B1, for which the binding entry is listed as “binds”.
